Measurements reported in the supplement of paper PMC10849652.
The other results are listed elsewhere or left out.

The chains behind the UniProt entries cited, without tags or fusion partners. Where a name states a change or a piece, a line headed by the entry shows the natural chain unless it says otherwise.
UniProt P61803: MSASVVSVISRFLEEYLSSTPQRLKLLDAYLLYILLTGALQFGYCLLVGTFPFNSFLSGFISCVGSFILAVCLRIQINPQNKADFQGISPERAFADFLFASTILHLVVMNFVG
UniProt Q9NUI1: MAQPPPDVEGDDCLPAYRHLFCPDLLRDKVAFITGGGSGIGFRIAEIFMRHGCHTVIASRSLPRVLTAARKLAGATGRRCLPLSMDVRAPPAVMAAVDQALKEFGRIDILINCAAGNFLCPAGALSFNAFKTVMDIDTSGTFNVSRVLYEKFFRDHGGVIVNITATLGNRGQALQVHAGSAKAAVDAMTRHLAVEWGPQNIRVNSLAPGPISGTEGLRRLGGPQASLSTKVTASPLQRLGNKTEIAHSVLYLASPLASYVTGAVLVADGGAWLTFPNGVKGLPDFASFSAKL
UniProt Q9Y2R4: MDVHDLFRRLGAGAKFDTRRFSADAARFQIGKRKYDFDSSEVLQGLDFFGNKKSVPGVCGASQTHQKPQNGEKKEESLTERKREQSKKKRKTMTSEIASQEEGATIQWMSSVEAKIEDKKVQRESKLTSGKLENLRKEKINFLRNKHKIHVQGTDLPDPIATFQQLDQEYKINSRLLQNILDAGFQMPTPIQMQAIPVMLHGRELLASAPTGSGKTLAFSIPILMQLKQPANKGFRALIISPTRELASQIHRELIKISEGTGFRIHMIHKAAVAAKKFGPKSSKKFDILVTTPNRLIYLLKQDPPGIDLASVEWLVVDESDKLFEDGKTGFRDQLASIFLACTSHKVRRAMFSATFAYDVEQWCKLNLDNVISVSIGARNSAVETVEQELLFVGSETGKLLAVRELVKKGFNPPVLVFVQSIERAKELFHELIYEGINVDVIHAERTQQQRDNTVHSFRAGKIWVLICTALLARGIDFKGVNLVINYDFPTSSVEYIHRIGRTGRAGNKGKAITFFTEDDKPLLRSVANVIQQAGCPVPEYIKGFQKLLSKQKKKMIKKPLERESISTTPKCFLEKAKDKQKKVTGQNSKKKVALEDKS
UniProt O15121: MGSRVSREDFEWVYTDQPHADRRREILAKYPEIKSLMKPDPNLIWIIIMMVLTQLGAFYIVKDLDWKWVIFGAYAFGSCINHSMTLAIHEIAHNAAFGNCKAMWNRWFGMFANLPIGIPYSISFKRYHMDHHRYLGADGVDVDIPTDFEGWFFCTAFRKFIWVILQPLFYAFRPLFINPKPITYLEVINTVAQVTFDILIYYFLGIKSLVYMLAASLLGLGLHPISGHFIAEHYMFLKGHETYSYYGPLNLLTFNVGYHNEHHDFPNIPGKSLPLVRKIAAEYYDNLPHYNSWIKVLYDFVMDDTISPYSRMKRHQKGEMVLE
UniProt Q8NHQ9: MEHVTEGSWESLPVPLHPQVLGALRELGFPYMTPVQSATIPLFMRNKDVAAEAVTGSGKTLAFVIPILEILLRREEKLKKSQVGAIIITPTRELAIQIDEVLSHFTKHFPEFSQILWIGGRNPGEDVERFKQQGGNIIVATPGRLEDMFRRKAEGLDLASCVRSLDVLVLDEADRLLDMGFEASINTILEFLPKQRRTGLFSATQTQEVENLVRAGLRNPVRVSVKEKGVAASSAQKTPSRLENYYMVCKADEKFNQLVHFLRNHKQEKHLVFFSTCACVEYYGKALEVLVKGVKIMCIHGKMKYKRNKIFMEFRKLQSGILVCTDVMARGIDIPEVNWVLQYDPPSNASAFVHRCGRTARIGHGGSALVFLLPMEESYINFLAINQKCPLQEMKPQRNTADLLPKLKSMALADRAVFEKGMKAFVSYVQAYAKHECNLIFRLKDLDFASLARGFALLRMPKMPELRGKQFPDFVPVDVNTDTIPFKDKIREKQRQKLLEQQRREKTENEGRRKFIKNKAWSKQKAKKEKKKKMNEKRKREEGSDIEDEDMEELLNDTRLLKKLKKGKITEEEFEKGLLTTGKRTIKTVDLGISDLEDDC
UniProt Q16850: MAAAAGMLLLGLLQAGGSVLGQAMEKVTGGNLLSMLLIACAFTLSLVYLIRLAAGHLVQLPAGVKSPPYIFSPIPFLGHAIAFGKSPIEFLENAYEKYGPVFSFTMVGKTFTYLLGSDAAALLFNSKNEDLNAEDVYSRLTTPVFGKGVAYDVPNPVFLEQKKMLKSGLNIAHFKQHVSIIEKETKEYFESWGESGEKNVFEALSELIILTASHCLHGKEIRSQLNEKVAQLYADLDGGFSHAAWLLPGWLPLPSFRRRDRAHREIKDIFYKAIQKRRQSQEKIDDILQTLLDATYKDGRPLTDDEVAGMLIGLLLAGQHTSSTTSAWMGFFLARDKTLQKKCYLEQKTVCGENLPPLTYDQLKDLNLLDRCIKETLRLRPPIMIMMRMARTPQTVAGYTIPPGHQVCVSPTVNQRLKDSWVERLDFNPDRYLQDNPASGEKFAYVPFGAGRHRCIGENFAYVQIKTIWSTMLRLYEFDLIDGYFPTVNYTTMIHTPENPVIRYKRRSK
UniProt Q9UHI6: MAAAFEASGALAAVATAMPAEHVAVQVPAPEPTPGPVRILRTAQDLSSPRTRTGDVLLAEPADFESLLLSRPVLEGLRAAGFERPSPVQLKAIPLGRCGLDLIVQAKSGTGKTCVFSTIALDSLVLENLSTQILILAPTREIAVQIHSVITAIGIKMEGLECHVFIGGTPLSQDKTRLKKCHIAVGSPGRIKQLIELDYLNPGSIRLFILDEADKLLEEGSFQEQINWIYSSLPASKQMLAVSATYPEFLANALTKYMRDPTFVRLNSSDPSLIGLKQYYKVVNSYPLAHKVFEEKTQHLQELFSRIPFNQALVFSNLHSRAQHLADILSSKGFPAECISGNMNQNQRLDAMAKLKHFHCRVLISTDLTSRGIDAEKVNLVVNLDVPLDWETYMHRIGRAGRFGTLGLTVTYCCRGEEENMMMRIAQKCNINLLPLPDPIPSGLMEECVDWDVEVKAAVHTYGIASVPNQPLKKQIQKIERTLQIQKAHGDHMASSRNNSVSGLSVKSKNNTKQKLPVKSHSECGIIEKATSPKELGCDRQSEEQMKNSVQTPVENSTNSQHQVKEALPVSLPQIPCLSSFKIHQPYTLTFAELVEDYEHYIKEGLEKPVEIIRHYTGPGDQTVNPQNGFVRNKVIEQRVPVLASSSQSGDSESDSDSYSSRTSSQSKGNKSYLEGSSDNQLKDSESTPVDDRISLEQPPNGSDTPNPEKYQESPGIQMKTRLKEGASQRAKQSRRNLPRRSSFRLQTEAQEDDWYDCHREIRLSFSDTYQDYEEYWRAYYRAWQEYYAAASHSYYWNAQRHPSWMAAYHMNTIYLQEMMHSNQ
UniProt P26196: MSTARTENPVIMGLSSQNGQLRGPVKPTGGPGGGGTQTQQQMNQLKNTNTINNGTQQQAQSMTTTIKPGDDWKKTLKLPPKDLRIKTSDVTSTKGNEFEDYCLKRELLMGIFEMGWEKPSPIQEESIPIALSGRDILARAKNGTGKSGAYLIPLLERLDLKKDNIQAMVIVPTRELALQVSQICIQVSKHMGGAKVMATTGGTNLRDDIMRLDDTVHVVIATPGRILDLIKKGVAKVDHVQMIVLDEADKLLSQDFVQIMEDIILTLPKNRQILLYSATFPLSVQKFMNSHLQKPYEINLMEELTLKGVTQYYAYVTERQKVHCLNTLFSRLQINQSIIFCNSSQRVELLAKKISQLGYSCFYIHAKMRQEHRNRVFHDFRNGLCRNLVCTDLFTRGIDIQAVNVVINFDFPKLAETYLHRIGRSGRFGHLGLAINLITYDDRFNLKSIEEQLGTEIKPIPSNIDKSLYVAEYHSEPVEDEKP
UniProt Q9Y4B6: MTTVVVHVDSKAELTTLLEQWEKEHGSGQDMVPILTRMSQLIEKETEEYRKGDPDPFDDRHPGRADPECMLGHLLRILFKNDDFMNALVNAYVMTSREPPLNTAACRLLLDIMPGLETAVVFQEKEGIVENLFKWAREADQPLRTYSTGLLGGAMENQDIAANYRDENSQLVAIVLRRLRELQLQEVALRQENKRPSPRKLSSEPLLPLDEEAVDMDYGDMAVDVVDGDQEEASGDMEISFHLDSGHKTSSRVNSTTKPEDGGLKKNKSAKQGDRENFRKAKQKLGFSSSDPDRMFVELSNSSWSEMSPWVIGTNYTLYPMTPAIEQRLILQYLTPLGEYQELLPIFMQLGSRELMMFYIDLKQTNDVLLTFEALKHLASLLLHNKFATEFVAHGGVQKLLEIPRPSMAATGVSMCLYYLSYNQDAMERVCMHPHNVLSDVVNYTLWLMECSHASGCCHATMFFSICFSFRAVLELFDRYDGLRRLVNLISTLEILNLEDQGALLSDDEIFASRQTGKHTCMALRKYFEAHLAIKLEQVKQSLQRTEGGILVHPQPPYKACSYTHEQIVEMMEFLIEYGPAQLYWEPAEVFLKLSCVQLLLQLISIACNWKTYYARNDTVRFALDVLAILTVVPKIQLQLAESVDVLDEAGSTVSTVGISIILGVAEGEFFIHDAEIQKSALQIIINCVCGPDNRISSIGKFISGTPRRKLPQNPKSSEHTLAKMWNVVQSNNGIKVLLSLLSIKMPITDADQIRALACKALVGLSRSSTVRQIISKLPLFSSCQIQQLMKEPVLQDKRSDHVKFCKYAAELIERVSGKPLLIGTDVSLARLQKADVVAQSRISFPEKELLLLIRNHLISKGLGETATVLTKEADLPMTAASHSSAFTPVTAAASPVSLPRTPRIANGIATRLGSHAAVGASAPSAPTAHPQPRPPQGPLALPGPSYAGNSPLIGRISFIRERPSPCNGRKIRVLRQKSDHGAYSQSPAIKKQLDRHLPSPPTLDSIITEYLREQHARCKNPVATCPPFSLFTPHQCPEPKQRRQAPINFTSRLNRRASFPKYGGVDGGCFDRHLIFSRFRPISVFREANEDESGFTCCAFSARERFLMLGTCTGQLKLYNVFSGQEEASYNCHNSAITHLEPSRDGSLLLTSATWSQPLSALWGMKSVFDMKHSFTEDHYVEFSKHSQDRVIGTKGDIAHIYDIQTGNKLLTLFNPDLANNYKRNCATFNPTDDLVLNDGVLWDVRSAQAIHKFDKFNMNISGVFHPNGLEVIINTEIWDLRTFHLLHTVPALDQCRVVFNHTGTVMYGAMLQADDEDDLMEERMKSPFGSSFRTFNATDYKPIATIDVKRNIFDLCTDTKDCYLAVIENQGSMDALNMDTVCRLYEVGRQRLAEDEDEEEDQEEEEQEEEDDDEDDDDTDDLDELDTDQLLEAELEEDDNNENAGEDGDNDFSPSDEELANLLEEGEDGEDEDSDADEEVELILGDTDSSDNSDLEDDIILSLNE
UniProt P51397: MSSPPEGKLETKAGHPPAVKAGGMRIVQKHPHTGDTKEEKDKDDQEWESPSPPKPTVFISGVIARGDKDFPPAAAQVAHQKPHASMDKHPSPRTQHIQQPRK
UniProt O00571: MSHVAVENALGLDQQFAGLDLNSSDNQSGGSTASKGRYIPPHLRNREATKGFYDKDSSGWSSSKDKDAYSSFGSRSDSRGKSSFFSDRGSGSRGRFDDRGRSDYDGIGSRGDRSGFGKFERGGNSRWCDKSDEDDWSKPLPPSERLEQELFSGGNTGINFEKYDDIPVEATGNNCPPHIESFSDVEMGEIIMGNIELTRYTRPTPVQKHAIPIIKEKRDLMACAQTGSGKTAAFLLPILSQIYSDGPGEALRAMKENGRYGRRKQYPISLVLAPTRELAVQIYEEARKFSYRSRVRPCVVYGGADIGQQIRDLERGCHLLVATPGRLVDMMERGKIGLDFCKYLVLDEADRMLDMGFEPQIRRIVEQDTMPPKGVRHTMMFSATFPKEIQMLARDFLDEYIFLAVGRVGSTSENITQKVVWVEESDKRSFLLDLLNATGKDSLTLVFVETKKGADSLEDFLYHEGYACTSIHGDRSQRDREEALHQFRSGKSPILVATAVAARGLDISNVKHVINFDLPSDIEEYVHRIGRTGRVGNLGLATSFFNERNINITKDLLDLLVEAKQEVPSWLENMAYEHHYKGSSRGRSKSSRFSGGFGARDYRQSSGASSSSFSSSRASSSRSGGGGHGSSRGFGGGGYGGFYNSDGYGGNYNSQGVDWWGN
UniProt P61962: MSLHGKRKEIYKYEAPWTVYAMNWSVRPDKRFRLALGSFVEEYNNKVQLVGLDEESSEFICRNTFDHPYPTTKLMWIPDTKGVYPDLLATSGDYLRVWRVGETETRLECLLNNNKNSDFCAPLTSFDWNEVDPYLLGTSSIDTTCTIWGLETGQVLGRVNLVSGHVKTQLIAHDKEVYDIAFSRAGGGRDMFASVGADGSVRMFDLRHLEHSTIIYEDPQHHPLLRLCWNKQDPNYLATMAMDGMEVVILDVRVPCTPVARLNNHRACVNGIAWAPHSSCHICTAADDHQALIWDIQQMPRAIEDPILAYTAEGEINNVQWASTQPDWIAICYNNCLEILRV

Experiments:
Assay in all cases: log2 fold change, soluble protein after heating vs DMSO (PISA); higher = thermal stabilisation; K562 lysate, 10 uM; active = over 0.2 and 3.5 SD of the protein, either way, in both replicates (recomputed)
erlotinib = compound: C#Cc1cccc(Nc2ncnc3cc(OCCOC)c(OCCOC)cc23)c1 [erlotinib]
Summary of the method: (§1)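 K562 pellets were dounce-homogenised in PBS pH 7.4 with 1 mM MgCl2, and the crude extract at 1 mg/mL protein was treated with 10 μM compound for 30 min. Aliquots were heated for 3 min across 48°C-58°C, pooled, and brought to 0.5% NP-40 at 4°C; soluble protein was the supernatant after 21,000xg for 90 min. Soluble protein was quantified by TMTpro 16plex LC-MS/MS with channel sums equalised, and reported as log2 fold change in thermal stability against DMSO controls, with values from duplicates.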

[1] = compound: C/C(=N\NC(=O)C1=CC(=CC=C1)S(=O)(=O)N2CCOCC2)/C3=C(C=CC(=C3)Cl)O
Summary of the method: as §1

[2] = compound: C1=CC(=CC=C1C2=NC3=C(N2)C=C(C=C3)C(=O)N)OC4=CC=C(C=C4)Cl
Summary of the method: as §1

[3] = compound: C1=CC2=C(C=CC(=C2)/C=C\3/C(=O)NC(=NCC4=CC=CS4)S3)N=C1
Summary of the method: as §1

[4] = compound: C1=CC2=NC=CN=C2C=C1/C=C/3\C(=O)NC(=O)S3
Summary of the method: as §1

[5] = compound: C1=CC=C(C=C1)C2=NC(=C(N2)C3=CC=NC=C3)C4=CC(=C(C=C4)Cl)O
Summary of the method: as §1

[6] = compound: C1=CC=C2C(=C1)C3=NNC4=CC=CC(=C43)C2=O
Summary of the method: as §1

[7] = compound: C1CCN(C1)C(=O)NC2=CC=CC(=C2)NC3=NC=C(C(=N3)NCCC4=CN=CN4)Br
Summary of the method: as §1

[8] = compound: C1CN(CCC1(CC2=CC=C(C=C2)Cl)N)C3=NC=NC4=C3C=CN4
Summary of the method: as §1

IRAK-1-4 Inhibitor I = compound: C1COCCN1CCN2C3=CC=CC=C3N=C2NC(=O)C4=CC(=CC=C4)[N+](=O)[O-] [IRAK-1-4 Inhibitor I]
Summary of the method: as §1

ibrutinib = compound: C=CC(=O)N1CCC[C@@H](n2nc(-c3ccc(Oc4ccccc4)cc3)c3c(N)ncnc32)C1 [ibrutinib]
Summary of the method: as §1

[9] = compound: CC(=O)c1cnc2ccc(-c3cc(Cl)c(O)c(Cl)c3)nc2c1N[C@H]1CC[C@H](CN(C)C)CC1
Summary of the method: as §1

ralimetinib = compound: CC(C)(C)Cn1c(N)nc2ccc(-c3[nH]c(C(C)(C)C)nc3-c3ccc(F)cc3)nc21 [ralimetinib]
Summary of the method: as §1

[10] = compound: CC(C)(O)CC(=O)NCCn1ccc2ncnc(Nc3ccc(Oc4cccc(C(F)(F)F)c4)c(Cl)c3)c21
Summary of the method: as §1

[11] = compound: CC(C)C1=C2N=C(C=C(N2N=C1)NCC3=CC=CC=C3)NCCCCCCN
Summary of the method: as §1

[12] = compound: CC1=C(C(CC(=O)N1)C2=CC=C(C=C2)C(F)(F)F)C(=O)NC3=C(C=C4C(=C3)C=NN4)F
Summary of the method: as §1

[13] = compound: CC1=C(C2=C(C=C1)C(=O)C3=CC=CC=C3N2CCCN)C
Summary of the method: as §1

[14] = compound: CC1=C(C=C(C=C1)NC(=O)C2=CC(=CC=C2)C(C)(C)C#N)NC3=CC4=C(C=C3)N=CN(C4=O)C
Summary of the method: as §1

[15] = compound: CC1=C(C=C(C=C1)NC(=O)C2=CC(=CC=C2)N(C)C)NC(=O)C3=CC=C(C=C3)O
Summary of the method: as §1

[16] = compound: CC1=CC=C(C=C1)SC2=C3C=C(SC3=CN=C2)C(=O)N
Summary of the method: as §1

Measured: log2 fold change

DAG1 (UniProt Q14118)
inactive: erlotinib 0.014 | [1] 0.021 | [2] 0.007 | [3] 0.013 | [4] 0.016 | [5] 0 | [6] -0.014 | [7] 0.015 | [8] 0.008 | IRAK-1-4 Inhibitor I 0.019 | ibrutinib 0.085 | [9] -0.001 | ralimetinib -0.053 | [10] -0.055 | [11] -0.011 | [12] -0.012 | [13] 0 | [14] -0.03 | [15] 0.022 | [16] -0.018

DAD1 (UniProt P61803)
inactive: erlotinib -0.126 | [1] -0.244 | [2] 0.063 | [3] -0.266 | [4] -0.122 | [5] 0.012 | [6] 0.246 | [7] -0.055 | [8] -0.098 | IRAK-1-4 Inhibitor I -0.025 | ibrutinib 0.058 | [9] -0.02 | ralimetinib 0.071 | [10] 0.016 | [11] -0.072 | [12] 0.034 | [13] -0.18 | [14] 0.066 | [15] 0.048 | [16] 0.063

DECR2 (UniProt Q9NUI1)
inactive: erlotinib 0.082 | [1] 0.012 | [2] -0.069 | [3] -0.031 | [4] -0.01 | [5] -0.02 | [6] -0.045 | [7] -0.021 | [8] -0.006 | IRAK-1-4 Inhibitor I -0.034 | ibrutinib 0.018 | [9] -0.208 | ralimetinib -0.046 | [10] 0.045 | [11] -0.179 | [12] -0.062 | [13] -0.013 | [14] 0.061 | [15] -0.067 | [16] -0.152

2 records drawn at random from those above:
DAG1 (UniProt Q14118)
inactive: erlotinib 0.014 | [1] 0.021 | [2] 0.007 | [3] 0.013 | [4] 0.016 | [5] 0 | [6] -0.014 | [7] 0.015 | [8] 0.008 | IRAK-1-4 Inhibitor I 0.019 | ibrutinib 0.085 | [9] -0.001 | ralimetinib -0.053 | [10] -0.055 | [11] -0.011 | [12] -0.012 | [13] 0 | [14] -0.03 | [15] 0.022 | [16] -0.018

DAD1 (UniProt P61803)
inactive: erlotinib -0.126 | [1] -0.244 | [2] 0.063 | [3] -0.266 | [4] -0.122 | [5] 0.012 | [6] 0.246 | [7] -0.055 | [8] -0.098 | IRAK-1-4 Inhibitor I -0.025 | ibrutinib 0.058 | [9] -0.02 | ralimetinib 0.071 | [10] 0.016 | [11] -0.072 | [12] 0.034 | [13] -0.18 | [14] 0.066 | [15] 0.048 | [16] 0.063

Later entries:

DEK (UniProt P35659)
inactive: erlotinib 0.005 | [1] -0.01 | [2] 0.025 | [3] -0.017 | [4] -0.034 | [5] 0.023 | [6] -0.012 | [7] 0 | [8] 0.019 | IRAK-1-4 Inhibitor I 0.006 | ibrutinib -0.002 | [9] 0.008 | ralimetinib -0.008 | [10] -0.004 | [11] 0.018 | [12] -0.003 | [13] -0.024 | [14] -0.001 | [15] 0.012 | [16] 0.016

DDX52 (UniProt Q9Y2R4)
inactive: erlotinib 0.046 | [1] 0.011 | [2] 0.021 | [3] 0.022 | [4] -0.021 | [5] -0.018 | [6] 0.008 | [7] -0.033 | [8] 0.032 | IRAK-1-4 Inhibitor I 0.089 | ibrutinib 0.09 | [9] 0.025 | ralimetinib 0.034 | [10] 0.057 | [11] -0.053 | [12] 0.012 | [13] 0.018 | [14] 0.17 | [15] -0.057 | [16] 0.021

DEGS1 (UniProt O15121)
inactive: erlotinib -0.096 | [1] -0.133 | [2] 0.011 | [3] 0.088 | [4] -0.107 | [5] 0.079 | [6] -0.023 | [7] 0.143 | [8] 0.033 | IRAK-1-4 Inhibitor I 0.073 | ibrutinib 0.065 | [9] -0.046 | ralimetinib 0.098 | [10] -0.018 | [11] 0.043 | [12] -0.008 | [13] -0.108 | [14] 0.071 | [15] -0.092 | [16] -0.03

DDX55 (UniProt Q8NHQ9)
inactive: erlotinib -0.003 | [1] 0.377 | [2] -0.052 | [3] -0.003 | [4] -0.008 | [5] 0.011 | [6] -0.012 | [7] -0.019 | [8] -0.002 | IRAK-1-4 Inhibitor I -0.045 | ibrutinib 0.017 | [9] -0.008 | ralimetinib 0.018 | [10] -0.032 | [11] 0.03 | [12] 0.021 | [13] -0.046 | [14] -0.039 | [15] 0.001 | [16] 0.027

CYP51A1 (UniProt Q16850)
active: ibrutinib 0.601
inactive: erlotinib -0.029 | [1] 0.045 | [2] 0.193 | [3] 0.058 | [4] -0.087 | [5] -0.041 | [6] 0.118 | [7] -0.092 | [8] -0.023 | IRAK-1-4 Inhibitor I 0.043 | [9] -0.025 | ralimetinib -0.025 | [10] 0.101 | [11] 0.038 | [12] -0.017 | [13] -0.031 | [14] -0.093 | [15] 0.014 | [16] -0.099

DDX39B isoform 2 (UniProt Q13838)
inactive: erlotinib -0.004 | [1] 0.002 | [2] -0.029 | [3] -0.034 | [4] 0.024 | [5] -0.01 | [6] 0.003 | [7] 0.006 | [8] -0.024 | IRAK-1-4 Inhibitor I -0.01 | ibrutinib 0.028 | [9] 0.007 | ralimetinib -0.004 | [10] 0.005 | [11] -0.012 | [12] 0.003 | [13] -0.002 | [14] -0.012 | [15] 0.008 | [16] -0.004

DDX20 (UniProt Q9UHI6)
inactive: erlotinib 0.021 | [1] 0.048 | [2] -0.054 | [3] -0.029 | [4] -0.005 | [5] 0.007 | [6] 0.022 | [7] 0.032 | [8] 0.042 | IRAK-1-4 Inhibitor I -0.015 | ibrutinib -0.01 | [9] 0.017 | ralimetinib 0.029 | [10] -0.029 | [11] -0.03 | [12] -0.011 | [13] 0.004 | [14] -0.006 | [15] 0.044 | [16] 0.01

DENND4B (UniProt O75064)
inactive: erlotinib 0.035 | [1] -0.032 | [2] -0.032 | [3] 0.031 | [4] -0.046 | [5] 0.035 | [6] -0.013 | [7] -0.035 | [8] 0.037 | IRAK-1-4 Inhibitor I -0.035 | ibrutinib -0.025 | [9] -0.036 | ralimetinib -0.012 | [10] -0.12 | [11] 0.021 | [12] 0.053 | [13] 0.101 | [14] -0.014 | [15] -0.044 | [16] -0.079

DDX6 (UniProt P26196)
inactive: erlotinib -0.03 | [1] -0.012 | [2] 0.032 | [3] 0.007 | [4] -0.007 | [5] -0.009 | [6] -0.009 | [7] -0.038 | [8] 0.025 | IRAK-1-4 Inhibitor I 0.011 | ibrutinib -0.018 | [9] -0.028 | ralimetinib 0.013 | [10] -0.007 | [11] -0.022 | [12] -0.016 | [13] 0.019 | [14] -0.011 | [15] 0.005 | [16] -0.009

DCAF1 (UniProt Q9Y4B6)
inactive: erlotinib -0.004 | [1] -0.037 | [2] 0.032 | [3] -0.001 | [4] 0 | [5] 0.003 | [6] -0.004 | [7] -0.017 | [8] -0.022 | IRAK-1-4 Inhibitor I 0.017 | ibrutinib 0.016 | [9] -0.037 | ralimetinib 0.022 | [10] -0.034 | [11] 0.001 | [12] 0.02 | [13] -0.039 | [14] 0.01 | [15] -0.003 | [16] -0.035

DAP (UniProt P51397)
inactive: erlotinib 0.005 | [1] -0.001 | [2] 0.015 | [3] 0.046 | [4] 0.051 | [5] 0.003 | [6] -0.02 | [7] -0.005 | [8] 0.053 | IRAK-1-4 Inhibitor I 0.02 | ibrutinib 0.162 | [9] -0.002 | ralimetinib 0.001 | [10] -0.034 | [11] 0.001 | [12] 0.037 | [13] -0.039 | [14] 0.017 | [15] -0.004 | [16] -0.024

DDX3X (UniProt O00571)
inactive: erlotinib -0.019 | [1] -0.016 | [2] -0.004 | [3] 0.001 | [4] 0.006 | [5] 0.059 | [6] -0.054 | [7] 0.022 | [8] -0.003 | IRAK-1-4 Inhibitor I -0.012 | ibrutinib -0.01 | [9] 0.021 | ralimetinib -0.048 | [10] -0.03 | [11] -0.016 | [12] 0.016 | [13] -0.023 | [14] 0.011 | [15] 0.038 | [16] 0.044

DCAF7 (UniProt P61962)
inactive: erlotinib -0.046 | [1] -0.02 | [2] 0.024 | [3] 0.073 | [4] 0.043 | [5] -0.02 | [6] 0.095 | [7] 0.005 | [8] 0.024 | IRAK-1-4 Inhibitor I 0.021 | ibrutinib -0.025 | [9] 0.084 | ralimetinib -0.022 | [10] -0.02 | [11] -0.013 | [12] -0.002 | [13] 0.006 | [14] -0.031 | [15] 0.008 | [16] 0.016
